Test results from article PMC2919408.
No constants are given. Whether binding was seen depends on the method and setting. Binding seen in cells or lysates may run through a third protein. A result given as binding can be weak or reduced; the word gives no strength. Tags and fused reporters may be left off the sequences shown.

The chains behind the UniProt entries cited, without tags or fusion partners. Where a name states a change or a piece, a line headed by the entry shows the natural chain unless it says otherwise.
UniProt Q4FZC9: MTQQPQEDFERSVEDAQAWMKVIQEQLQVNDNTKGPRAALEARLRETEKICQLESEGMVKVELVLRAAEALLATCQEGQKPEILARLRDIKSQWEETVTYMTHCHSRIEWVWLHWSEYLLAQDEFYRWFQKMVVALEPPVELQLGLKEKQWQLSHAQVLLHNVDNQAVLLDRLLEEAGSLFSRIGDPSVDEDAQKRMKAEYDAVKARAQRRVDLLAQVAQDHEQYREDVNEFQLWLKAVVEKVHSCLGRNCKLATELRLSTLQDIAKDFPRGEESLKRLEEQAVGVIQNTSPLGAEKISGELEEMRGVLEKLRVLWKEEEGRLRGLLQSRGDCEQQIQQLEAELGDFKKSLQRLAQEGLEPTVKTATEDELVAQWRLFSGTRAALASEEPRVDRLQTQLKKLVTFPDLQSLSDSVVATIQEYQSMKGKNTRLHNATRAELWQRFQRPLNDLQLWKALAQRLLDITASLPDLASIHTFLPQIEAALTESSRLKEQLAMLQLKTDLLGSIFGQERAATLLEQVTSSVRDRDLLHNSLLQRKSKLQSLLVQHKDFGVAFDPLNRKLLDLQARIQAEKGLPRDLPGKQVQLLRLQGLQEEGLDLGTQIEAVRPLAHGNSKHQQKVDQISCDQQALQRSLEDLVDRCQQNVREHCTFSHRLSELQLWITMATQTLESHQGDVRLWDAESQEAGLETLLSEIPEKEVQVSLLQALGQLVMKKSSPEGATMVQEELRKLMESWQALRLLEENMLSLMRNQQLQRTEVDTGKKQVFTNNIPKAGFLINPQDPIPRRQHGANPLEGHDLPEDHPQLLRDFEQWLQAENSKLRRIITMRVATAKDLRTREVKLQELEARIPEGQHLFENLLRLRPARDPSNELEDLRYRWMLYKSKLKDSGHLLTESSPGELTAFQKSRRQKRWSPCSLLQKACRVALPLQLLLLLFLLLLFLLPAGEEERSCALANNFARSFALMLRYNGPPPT

What was measured:
[1] = target: T1, Myc-tagged murine Sun1 amino acids 501-913 (Sun1TM+Lum) (mouse) (UniProt Q9D666); assay: co-IP; HeLa cells transiently co-transfected with Myc-SUN and EGFP-nesprin constructs, lysed in RIPA buffer 24 h after transfection; immunoprecipitation with anti-myc mAb overnight at 4°C, Dynabeads Protein G, blot with anti-EGFP; unspecific mouse IgG as control
T1 sequence: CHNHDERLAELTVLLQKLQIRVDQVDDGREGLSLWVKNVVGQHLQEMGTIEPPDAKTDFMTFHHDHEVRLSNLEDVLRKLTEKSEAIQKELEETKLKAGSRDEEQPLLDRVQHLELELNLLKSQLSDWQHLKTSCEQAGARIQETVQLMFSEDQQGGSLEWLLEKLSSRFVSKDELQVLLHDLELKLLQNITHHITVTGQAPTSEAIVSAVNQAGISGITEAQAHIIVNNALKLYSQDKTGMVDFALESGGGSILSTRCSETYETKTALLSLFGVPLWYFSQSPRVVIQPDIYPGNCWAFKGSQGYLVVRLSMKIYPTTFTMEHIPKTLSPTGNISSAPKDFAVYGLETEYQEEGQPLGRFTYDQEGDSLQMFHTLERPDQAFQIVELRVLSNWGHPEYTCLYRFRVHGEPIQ

[2] = target: T2, Myc-tagged full-length murine Sun3 (Sun3FL) (mouse) (UniProt Q5SS91); assay: as above
T2 sequence: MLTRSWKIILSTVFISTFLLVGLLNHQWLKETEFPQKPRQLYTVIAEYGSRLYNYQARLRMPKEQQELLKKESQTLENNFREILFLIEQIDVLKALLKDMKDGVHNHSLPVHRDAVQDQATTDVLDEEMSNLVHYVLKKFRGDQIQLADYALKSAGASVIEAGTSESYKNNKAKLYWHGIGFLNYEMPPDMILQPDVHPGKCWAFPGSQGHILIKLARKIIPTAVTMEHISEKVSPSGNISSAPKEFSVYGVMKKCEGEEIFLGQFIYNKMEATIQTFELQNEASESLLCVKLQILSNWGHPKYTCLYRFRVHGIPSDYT

| binding [1] | binding [2] | Substance |
| --- | --- | --- |
| binds | binds | EGFP-Nesprin3TM+KASH (67 C-terminal amino acids of Nesprin3) (from UniProt Q4FZC9) (domain or fragment) |
| – | binds | EGFP-Nesprin1TM+KASH (74 C-terminal amino acids of murine Nesprin1) (from UniProt Q6ZWR6) (domain or fragment) |
